# Measurements published in PubChem BioAssay AID248 (DTP/NCI, 2004).
# The list does not hold the whole screen: it gathers tests that were run many times, whatever their T/C, doses with no T/C, and many T/C values between a quarter and a half above the control. Other doses and runs of a compound stand elsewhere. T/C is the treated group as % of the vehicle group. Some entries give survivors of the animals treated and no T/C: the source files T/C as zero there, which appears to mark a toxic dose or a test without result, not a measured value. Some survivor counts are full or nearly so, which does not show that the dose was tolerated: the source hardly ever lists a survival T/C far under the control, and the zero likely stands for such cases as well. Counts of survivors are from the toxicity check (mostly the fifth day) where no day follows; animals may have died later. Schedules are NCI's codes, read here as Q, the interval in days (D) or hours (H), X, the number of doses. Some schedule codes hold Z or #, which are not explained here. Some doses were run more than once; the results are listed from low to high. For survival time, the PubChem record calls one and a half times the control and up active, and a quarter to a half above the control has no call in these data; cut-offs in other NCI protocols can differ. Some T/C values are followed by the survivors on the day toxicity was checked, most often the fifth; without a count, all were alive then. Counts like (3×) stand for listed records that agree.
# System: L1210 leukemia ip in BDF1 mice, survival T/C
# Test: NCI In Vivo Anticancer Drug Screen. Data for tumor model L1210 Leukemia (intraperitoneal) in B6D2F1 (BDF1) mice
# Conditions: T/C endpoint: mean survival time, higher T/C = longer survival
# [1] = dose: 3.2 mg/kg/injection, schedule: Q01DX013 (ip), vehicle: saline
smiles,measurement,setting,value
COC(C(=O)C(O)C(C)O)C1Cc2cc3cc(OC4CC(OC(C)=O)C(OC5CC(O)C(OC)C(C)O5)C(C)O4)cc(O)c3c(O)c2C(=O)C1OC1CC(OC2CC(OC3CC(C)(O)C(OC(=O)C(C)C)C(C)O3)C(O)C(C)O2)C(O)C(C)O1 (stereo not drawn),T/C,"dose: 0.37 mg/kg/injection, schedule: Q01DX017 (ip), vehicle: carboxymethylcellulose (CMC)",128 % of control
same,T/C,"dose: 0.4 mg/kg/injection, schedule: Q01DX013 (ip), vehicle: saline","104, 107, 109, 123, 125 % of control"
same,T/C,"dose: 0.5 mg/kg/injection, schedule: Q01DX009 (ip), vehicle: saline with Tween-80",130 % of control
same,T/C,"dose: 0.5 mg/kg/injection, schedule: Q01DX009 (ip), vehicle: saline",125 and 131 % of control
same,T/C,"dose: 0.5 mg/kg/injection, schedule: Q01DX015 (ip), vehicle: carboxymethylcellulose (CMC)",127 % of control
same,T/C,"dose: 0.5 mg/kg/injection, schedule: Q01DX017 (ip), vehicle: carboxymethylcellulose (CMC)",140 % of control
same,T/C,"dose: 0.5 mg/kg/injection, schedule: Q#A X034 (ip), vehicle: carboxymethylcellulose (CMC)",125 % of control
same,T/C,"dose: 0.75 mg/kg/injection, schedule: Q01DX010 (ip), vehicle: saline",129 % of control
same,T/C,"dose: 0.75 mg/kg/injection, schedule: Q01DX017 (ip), vehicle: carboxymethylcellulose (CMC)",137 % of control
same,T/C,"dose: 0.75 mg/kg/injection, schedule: Q02DX009 (ip), vehicle: carboxymethylcellulose (CMC)",126 % of control
same,T/C,"dose: 0.8 mg/kg/injection, schedule: Q01DX013 (ip), vehicle: saline","119 (2×), 120, 140 [5 of 6 alive], 141 % of control"
same,T/C,"dose: 0.8 mg/kg/injection, schedule: Q01DX015 (ip), vehicle: carboxymethylcellulose (CMC)",127 % of control
same,T/C,"dose: 1.0 mg/kg/injection, schedule: Q01DX009 (ip), vehicle: other",128 % of control
same,T/C,"dose: 1.0 mg/kg/injection, schedule: Q01DX009 (ip), vehicle: saline",133 and 140 % of control
same,T/C,"dose: 1.0 mg/kg/injection, schedule: Q01DX015 (ip), vehicle: carboxymethylcellulose (CMC)",141 % of control
same,survivor count,"dose: 1.0 mg/kg/injection, schedule: Q## X016 (ip), vehicle: carboxymethylcellulose (CMC)",10 of 10
same,T/C,"dose: 1.5 mg/kg/injection, schedule: Q01DX010 (ip), vehicle: saline",132 % of control
same,T/C,"dose: 1.5 mg/kg/injection, schedule: Q01DX017 (ip), vehicle: carboxymethylcellulose (CMC)",143 % of control
same,T/C,"dose: 1.5 mg/kg/injection, schedule: Q## X003 (ip), vehicle: saline",129 % of control
same,T/C,"dose: 1.5 mg/kg/injection, schedule: Q## X005 (ip), vehicle: carboxymethylcellulose (CMC)",137 % of control
same,T/C,"dose: 1.6 mg/kg/injection, schedule: Q01DX013 (ip), vehicle: saline","127, 131, 145 % of control"
same,T/C,"dose: 1.6 mg/kg/injection, schedule: Q01DX015 (ip), vehicle: carboxymethylcellulose (CMC)",146 % of control
same,T/C,"dose: 1.8 mg/kg/injection, schedule: Q01DX001 (ip), vehicle: saline",130 % of control
same,T/C,"dose: 2.0 mg/kg/injection, schedule: Q01DX009 (ip), vehicle: carboxymethylcellulose (CMC)",131 % of control
same,T/C,"dose: 2.0 mg/kg/injection, schedule: Q01DX009 (ip), vehicle: saline",133 % of control
same,survivor count,"dose: 2.0 mg/kg/injection, schedule: Q#A X034 (ip), vehicle: carboxymethylcellulose (CMC)",5 of 6
same,T/C,"dose: 2.7 mg/kg/injection, schedule: Q01DX001 (ip), vehicle: saline",126 % of control
same,T/C,"dose: 3.0 mg/kg/injection, schedule: Q01DX010 (ip), vehicle: saline",141 % of control
same,T/C,"dose: 3.0 mg/kg/injection, schedule: Q02DX005 (ip), vehicle: saline",143 % of control
same,T/C,"dose: 3.0 mg/kg/injection, schedule: Q## X003 (ip), vehicle: saline",143 % of control
same,T/C,[1],"90, 115, 125, 156 % of control"
same,survivor count,[1],3 of 6
same,T/C,"dose: 4.0 mg/kg/injection, schedule: Q01DX001 (ip), vehicle: carboxymethylcellulose (CMC)",136 % of control
same,T/C,"dose: 4.0 mg/kg/injection, schedule: Q01DX001 (ip), vehicle: saline",129 and 130 % of control
same,survivor count,"dose: 4.0 mg/kg/injection, schedule: Q01DX005 (ip), vehicle: carboxymethylcellulose (CMC)",7 of 10
same,survivor count,"dose: 4.0 mg/kg/injection, schedule: Q01DX009 (ip), vehicle: saline with Tween-80",4 of 6
same,survivor count,"dose: 4.0 mg/kg/injection, schedule: Q01DX009 (ip), vehicle: saline",0 of 6 and 3 of 6
same,survivor count,"dose: 4.0 mg/kg/injection, schedule: Q01DX015 (ip), vehicle: carboxymethylcellulose (CMC)",8 of 10
same,T/C,"dose: 4.0 mg/kg/injection, schedule: Q01DX017 (ip), vehicle: carboxymethylcellulose (CMC)",128 % of control
same,survivor count,"dose: 4.0 mg/kg/injection, schedule: Q01DX Z (ip), vehicle: saline",6 of 6
same,T/C,"dose: 4.0 mg/kg/injection, schedule: Q## X003 (ip), vehicle: carboxymethylcellulose (CMC)",131 % of control [9 of 10 alive]
same,T/C,"dose: 4.0 mg/kg/injection, schedule: Q## X024 (ip), vehicle: carboxymethylcellulose (CMC)",139 % of control [9 of 10 alive]
same,survivor count,"dose: 4.0 mg/kg/injection, schedule: Q#A X034 (ip), vehicle: carboxymethylcellulose (CMC)",0 of 6
same,T/C,"dose: 5.0 mg/kg/injection, schedule: Q01DX001 (ip), vehicle: saline",132 % of control
same,T/C,"dose: 6.0 mg/kg/injection, schedule: Q01DX001 (ip), vehicle: carboxymethylcellulose (CMC)",136 % of control
same,T/C,"dose: 6.0 mg/kg/injection, schedule: Q01DX001 (ip), vehicle: saline",129 and 134 % of control
same,survivor count,"dose: 6.0 mg/kg/injection, schedule: Q01DX010 (ip), vehicle: saline",1 of 6
same,T/C,"dose: 6.0 mg/kg/injection, schedule: Q02DX005 (ip), vehicle: saline",129 % of control
same,T/C,"dose: 6.0 mg/kg/injection, schedule: Q## X003 (ip), vehicle: saline",143 % of control
same,survivor count,"dose: 6.4 mg/kg/injection, schedule: Q01DX015 (ip), vehicle: carboxymethylcellulose (CMC)",0 of 6
same,survivor count,"dose: 8.0 mg/kg/injection, schedule: Q01DX001 (ip), vehicle: saline","0 of 4, 0 of 6, 3 of 6"
same,survivor count,"dose: 8.0 mg/kg/injection, schedule: Q01DX005 (ip), vehicle: carboxymethylcellulose (CMC)",4 of 10
same,survivor count,"dose: 8.0 mg/kg/injection, schedule: Q01DX006 (iv), vehicle: carboxymethylcellulose (CMC)",1 of 10
same,survivor count,"dose: 8.0 mg/kg/injection, schedule: Q01DX009 (ip), vehicle: saline",0 of 6 and 1 of 6
same,survivor count,"dose: 8.0 mg/kg/injection, schedule: Q01DX015 (im), vehicle: carboxymethylcellulose (CMC)",1 of 10
same,survivor count,"dose: 8.0 mg/kg/injection, schedule: Q01DX015 (ip), vehicle: carboxymethylcellulose (CMC)",0 of 10
same,survivor count,"dose: 8.0 mg/kg/injection, schedule: Q01DX015 (sc), vehicle: carboxymethylcellulose (CMC)",1 of 10
same,survivor count,"dose: 8.0 mg/kg/injection, schedule: Q01DX017 (ip), vehicle: carboxymethylcellulose (CMC)",0 of 6
same,survivor count,"dose: 8.0 mg/kg/injection, schedule: Q02DX009 (ip), vehicle: carboxymethylcellulose (CMC)",3 of 5
same,survivor count,"dose: 8.0 mg/kg/injection, schedule: Q## X005 (ip), vehicle: carboxymethylcellulose (CMC)",2 of 6
same,survivor count,"dose: 8.0 mg/kg/injection, schedule: Q## X008 (ip), vehicle: carboxymethylcellulose (CMC)",1 of 10
same,survivor count,"dose: 8.0 mg/kg/injection, schedule: Q## X016 (ip), vehicle: carboxymethylcellulose (CMC)",3 of 10
same,survivor count,"dose: 10.0 mg/kg/injection, schedule: Q01DX001 (ip), vehicle: saline",1 of 4
same,survivor count,"dose: 16.0 mg/kg/injection, schedule: Q01DX001 (ip), vehicle: carboxymethylcellulose (CMC)",1 of 6
same,survivor count,"dose: 16.0 mg/kg/injection, schedule: Q01DX001 (ip), vehicle: saline",0 of 6
same,survivor count,"dose: 16.0 mg/kg/injection, schedule: Q02DX009 (ip), vehicle: carboxymethylcellulose (CMC)",0 of 6
same,survivor count,"dose: 16.0 mg/kg/injection, schedule: Q## X005 (ip), vehicle: carboxymethylcellulose (CMC)",1 of 6
same,survivor count,"dose: 20.0 mg/kg/injection, schedule: Q01DX001 (ip), vehicle: saline",0 of 4
same,survivor count,"dose: 32.0 mg/kg/injection, schedule: Q01DX001 (ip), vehicle: carboxymethylcellulose (CMC)",1 of 6
same,survivor count,"dose: 32.0 mg/kg/injection, schedule: Q## X005 (ip), vehicle: carboxymethylcellulose (CMC)",0 of 6
same,survivor count,"dose: 40.0 mg/kg/injection, schedule: Q01DX001 (ip), vehicle: saline",0 of 4
same,survivor count,"dose: 50.0 mg/kg/injection, schedule: Q01DX001 (ip), vehicle: saline",0 of 4
same,survivor count,"dose: 64.0 mg/kg/injection, schedule: Q01DX001 (ip), vehicle: carboxymethylcellulose (CMC)",0 of 6
same,survivor count,"dose: 80.0 mg/kg/injection, schedule: Q01DX001 (ip), vehicle: saline",0 of 4
same,survivor count,"dose: 100.0 mg/kg/injection, schedule: Q01DX001 (ip), vehicle: saline",0 of 4
same,survivor count,"dose: 200.0 mg/kg/injection, schedule: Q01DX001 (ip), vehicle: saline",0 of 4
same,survivor count,"dose: 400.0 mg/kg/injection, schedule: Q01DX001 (ip), vehicle: saline",0 of 4
same,T/C,"dose: 500.0 micrograms/kg/injection, schedule: Q01DX Z (ip), vehicle: saline",131 % of control
